# Test results: PubChem BioAssay AID743255 (National Center for Advancing Translational Sciences (NCATS), 2014)
# Protein sequences, listed by entry. Tags and fused reporters are not part of them. Lines headed by an entry give the natural chain unless they say otherwise; changes in a name come on top.
# UniProt O94782: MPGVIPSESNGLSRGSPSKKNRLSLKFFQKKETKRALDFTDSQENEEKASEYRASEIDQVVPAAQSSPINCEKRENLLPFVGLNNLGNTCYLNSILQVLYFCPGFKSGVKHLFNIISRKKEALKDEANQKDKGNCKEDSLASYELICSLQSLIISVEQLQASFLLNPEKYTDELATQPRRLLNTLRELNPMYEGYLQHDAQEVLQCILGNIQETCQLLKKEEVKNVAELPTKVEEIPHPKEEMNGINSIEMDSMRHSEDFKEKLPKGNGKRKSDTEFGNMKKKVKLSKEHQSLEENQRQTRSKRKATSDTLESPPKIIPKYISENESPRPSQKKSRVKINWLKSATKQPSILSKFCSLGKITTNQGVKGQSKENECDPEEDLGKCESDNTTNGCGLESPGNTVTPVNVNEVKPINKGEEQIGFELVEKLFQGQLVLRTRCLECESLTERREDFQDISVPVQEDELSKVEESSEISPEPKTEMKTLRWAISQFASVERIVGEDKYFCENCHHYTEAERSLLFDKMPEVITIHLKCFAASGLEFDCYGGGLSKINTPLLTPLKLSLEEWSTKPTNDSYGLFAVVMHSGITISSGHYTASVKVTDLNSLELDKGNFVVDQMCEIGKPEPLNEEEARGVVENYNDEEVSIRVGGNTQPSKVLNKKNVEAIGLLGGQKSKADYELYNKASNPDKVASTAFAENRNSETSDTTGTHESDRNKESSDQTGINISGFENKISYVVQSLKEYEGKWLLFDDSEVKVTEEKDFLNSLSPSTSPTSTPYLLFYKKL
# The whole screen tested about 390,000 compounds, of which about 910 (0.23%) were called active. This list was built around the results that the source calls inconclusive (neither active nor inactive); the mix of calls is not that of the screen. Calls come from the whole dose curve; as a rule, active = well fitted inhibition curve with a large enough effect; inconclusive = small, poorly fitted or top-dose-only effect; inactive = no such curve, though single readings can be large or run the other way. A potency beside an inconclusive call is a rough fit, not a confirmed value.
# Biological target: Ubiquitin carboxyl-terminal hydrolase 1 (Homo sapiens) (UniProt O94782)
# Assay: Inhibitors of USP1/UAF1: Primary Screen; note: nearly all actives have a fitted effect of over 60% in size
# Details: recombinant USP1/UAF1, Ub-Rhodamine cleavage fluorescence; activity change, negative = inhibition: at 57.1 µM (top of the series)
# Procedure, shortened: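 USP1/UAF1 complex (1 nM) preincubated 15 min at room temperature with compound, then Ub-Rho substrate (150 nM final) added. Kinetic fluorescence at 480/540 nm over 6 reads at 60 s intervals; 50 mM HEPES pH 7.8, 0.5 mM EDTA, 0.1 mg/ml BSA, 1 mM TCEP, 0.01% Tween-20.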
# % is set by controls: 0 for no effect and ±100 for the full control effect; potency is the fitted concentration of half-maximal effect.
Structure (SMILES),Potency,"activity change, negative = inhibition"
COc1ccc(-n2c(CCC(=O)O)ccc2-c2ccccc2)c(OC)c1,inactive,–
COc1cc(OC)c(NC(=O)CCNS(=O)(=O)c2ccc3c(c2)oc(=O)n3C)cc1Cl,"inconclusive: 2.24 µM [inhibitor, full curve]",–
O=C(Nc1ccccc1)Nc1ccc2ncoc2c1,inactive,–
Cn1cnc2c(SCc3ccccc3)ncnc21,"inconclusive: 56.2 µM [inhibitor, partial curve, poor fit]",–
CCCN1CCN(CCCNC(=O)c2ccc(CS(=O)c3ccc(OC)cc3)o2)CC1 (centres undefined),–,inconclusive: -29.5% [inhibitor]
CCCCc1ccc(NC(=S)NCc2cccs2)cc1,"inconclusive: 35.5 µM [inhibitor, partial curve, poor fit]",–
Clc1ccc(CNC2CCCC2)c(Cl)c1,inactive,–
O=C(O)C1CC(=O)N(Cc2cccnc2)C1 (centres undefined),"inconclusive: 7.08 µM [inhibitor, single point]",–
COCCCN1CCN(C2Cc3ccccc3Sc3ccc(Cl)cc32)CC1 (centres undefined),inactive,–
CC1CCCN(CCCOc2ccc(Cl)cc2Br)C1 (centres undefined),inactive,–
CC(=O)Nc1cccc(NC(=O)C(=O)NCCc2csc3nc(-c4ccccc4F)nn23)c1,"inconclusive: 3.55 µM [inhibitor, full curve, poor fit]",–
Cn1c(=O)c2cc(S(=O)(=O)NC(C(=O)N3CCCCCC3)c3ccccc3)ccc2n(C)c1=O (centres undefined),"inconclusive: 31.6 µM [inhibitor, partial curve]",–
CC1=NN(c2nc(-c3ccccc3)cs2)C(=O)C1N=Nc1ccccc1 (centres undefined),"inconclusive: 7.08 µM [inhibitor, full curve]",–
COc1ccc(N/C=C2\CCc3ccccc3C2=O)cc1,"inconclusive: 35.5 µM [inhibitor, partial curve]",–
Cc1cc(Cl)ccc1NC(=O)c1cc2ccccn2n1,inactive,–
COc1cc(S(=O)(=O)NC2CCCCC2)c(C)cc1C,"inconclusive: 0.447 µM [inhibitor, full curve, poor fit]",–
CCCN1CCN(CCCNC(=O)Cn2c(-c3cccs3)cc3cc(Cl)ccc32)CC1,"inconclusive: 50.1 µM [inhibitor, single point]",–
COc1cc(OC)c(OC)cc1/C=C/c1nc2ccccc2c(=O)n1-c1ccc(Br)c(C)c1,inactive,–
Cc1ccc(NC(=O)C2CCCN(S(=O)(=O)c3ccc4c(c3)CCCC(=O)N4)C2)cc1Cl (centres undefined),"inconclusive: 141 µM [inhibitor, partial curve, poor fit]",–
CCc1cc(=O)oc2c(CNCc3c(F)cccc3Cl)c(O)ccc12,"inconclusive: 1.26 µM [inhibitor, full curve, poor fit]",–
Cc1cc(-c2ccc(S(=O)(=O)Nc3cccc(Cl)c3C)cc2)on1,"inconclusive: 56.2 µM [inhibitor, single point]",–
O=C(Cn1c(-c2ccccc2)c[n+]2ccsc12)c1ccccc1,inactive,–

# Sorted by SMILES length (ascending): some entries from above
Structure (SMILES),Potency,"activity change, negative = inhibition"
O=C(Nc1ccccc1)Nc1ccc2ncoc2c1,inactive,–
COc1cc(S(=O)(=O)NC2CCCCC2)c(C)cc1C,"inconclusive: 0.447 µM [inhibitor, full curve, poor fit]",–
Cc1cc(-c2ccc(S(=O)(=O)Nc3cccc(Cl)c3C)cc2)on1,"inconclusive: 56.2 µM [inhibitor, single point]",–

# Additional structures:

Structure (SMILES),Potency,"activity change, negative = inhibition"
CC1CCCN(CCC(=O)Nc2ccc(Br)cc2)C1 (centres undefined),"inconclusive: 28.2 µM [inhibitor, single point]",–
COc1cc(NC(=S)NCCC(c2ccccc2)c2ccccc2)cc(OC)c1,"inconclusive: 31.6 µM [inhibitor, partial curve]",–
Nc1ccc2oc(Cc3ccc(Cl)cc3)nc2c1,inactive,–
Cc1ccccc1NC1c2ccccc2C(=O)N1Cc1ccco1 (centres undefined),inactive,–
CCCCC(O)(CCCC)C(=O)N/N=C(\C)c1ccc(Cl)cc1,"inconclusive: 0.282 µM [inhibitor, full curve, poor fit]",–
COc1cccc(-c2ccc3c(N)c(C(=O)Nc4ccccc4C)sc3n2)c1,inactive,–
O=C1C(NS(=O)(=O)c2ccc(Cl)cc2)=C(N2CCCCC2)C(=O)c2ccccc21,"inconclusive: 44.7 µM [inhibitor, partial curve]",–
CCCCNC(=O)c1ccc2c(c1)NC(=O)C(CS(=O)(=O)Cc1ccc(F)cc1Cl)N2 (centres undefined),"inconclusive: 35.5 µM [inhibitor, single point]",–
O=C(NCc1ccco1)c1ccc2c(c1)N(Cc1ccccc1F)C(=O)c1ccccc1S2(=O)=O,inactive,–
Cc1cc(C)cc(OCCn2ccnc2)c1,inactive,–
NC(=O)CC(NC(=O)Cc1cccc2ccccc12)c1ccc(N2CCN(c3ccccn3)CC2)c([N+](=O)[O-])c1 (centres undefined),"inconclusive: 50.1 µM [inhibitor, partial curve, poor fit]",–
Cc1ccc(CCNC(=O)c2cc3c(=O)n(C)c4ccccc4c3n2C)cc1,"inconclusive: 8.91 µM [inhibitor, full curve, poor fit]",–
CC(=O)c1cccc(NC(=O)CSc2nc3c(=O)n(C)c(=O)n(C)c3n2C)c1,inactive,–
Cc1cc(NC(=O)CSc2nnc(C)n2-c2ccccc2C)no1,"inconclusive: 7.94 µM [inhibitor, single point]",–
CN(C)N1C(N)=C(C#N)C(c2cccs2)C2=C1CC(C)(C)CC2=O (centres undefined),"inconclusive: 35.5 µM [inhibitor, single point]",–
Cc1cn(C2OC(COC(=O)c3ccccc3)C(O)C2O)c(=O)[nH]c1=O (centres undefined),"inconclusive: 0.447 µM [inhibitor, full curve, poor fit]",–
O=C(COC(=O)c1ccc([N+](=O)[O-])s1)Nc1ccccc1,"inconclusive: 35.5 µM [inhibitor, partial curve, poor fit]",–
Nc1ccc2c(S(=O)(=O)O)cccc2c1S(=O)(=O)O,"inconclusive: 44.7 µM [inhibitor, partial curve, poor fit]",–
CC(C)(C)CNC(=O)c1cccc2c1C(=O)c1ccc(N3CCCC3)cc1S2(=O)=O,"inconclusive: 28.2 µM [inhibitor, single point]",–
O=S(=O)(c1ccc(Cl)c(Cl)c1)c1snnc1-c1ccccc1,"inconclusive: 50.1 µM [inhibitor, partial curve, poor fit]",–
C=CCOc1c(Br)cc(CNc2ccc(NC(=O)C(C)C)cc2)cc1OCC,"inconclusive: 44.7 µM [inhibitor, partial curve, poor fit]",–
CC(C)c1ccc(NC(=O)CN2C(=O)c3cccc4cccc2c34)cc1,"inconclusive: 1.41 µM [inhibitor, full curve, poor fit]",–
